Measurements published in patent US20030120051A1.
No constants are given. Whether binding was seen depends on the method and setting. For some assays here: In cells and extracts the contact can be indirect. Some entries that bind do so weakly or less than the wild type. Tags and fused reporters may be left off the sequences shown.

Chains of the proteins cited; added tags and fusions are not shown. Lines headed by an entry give the natural chain unless they say otherwise; changes in a name come on top.
UniProt P23471: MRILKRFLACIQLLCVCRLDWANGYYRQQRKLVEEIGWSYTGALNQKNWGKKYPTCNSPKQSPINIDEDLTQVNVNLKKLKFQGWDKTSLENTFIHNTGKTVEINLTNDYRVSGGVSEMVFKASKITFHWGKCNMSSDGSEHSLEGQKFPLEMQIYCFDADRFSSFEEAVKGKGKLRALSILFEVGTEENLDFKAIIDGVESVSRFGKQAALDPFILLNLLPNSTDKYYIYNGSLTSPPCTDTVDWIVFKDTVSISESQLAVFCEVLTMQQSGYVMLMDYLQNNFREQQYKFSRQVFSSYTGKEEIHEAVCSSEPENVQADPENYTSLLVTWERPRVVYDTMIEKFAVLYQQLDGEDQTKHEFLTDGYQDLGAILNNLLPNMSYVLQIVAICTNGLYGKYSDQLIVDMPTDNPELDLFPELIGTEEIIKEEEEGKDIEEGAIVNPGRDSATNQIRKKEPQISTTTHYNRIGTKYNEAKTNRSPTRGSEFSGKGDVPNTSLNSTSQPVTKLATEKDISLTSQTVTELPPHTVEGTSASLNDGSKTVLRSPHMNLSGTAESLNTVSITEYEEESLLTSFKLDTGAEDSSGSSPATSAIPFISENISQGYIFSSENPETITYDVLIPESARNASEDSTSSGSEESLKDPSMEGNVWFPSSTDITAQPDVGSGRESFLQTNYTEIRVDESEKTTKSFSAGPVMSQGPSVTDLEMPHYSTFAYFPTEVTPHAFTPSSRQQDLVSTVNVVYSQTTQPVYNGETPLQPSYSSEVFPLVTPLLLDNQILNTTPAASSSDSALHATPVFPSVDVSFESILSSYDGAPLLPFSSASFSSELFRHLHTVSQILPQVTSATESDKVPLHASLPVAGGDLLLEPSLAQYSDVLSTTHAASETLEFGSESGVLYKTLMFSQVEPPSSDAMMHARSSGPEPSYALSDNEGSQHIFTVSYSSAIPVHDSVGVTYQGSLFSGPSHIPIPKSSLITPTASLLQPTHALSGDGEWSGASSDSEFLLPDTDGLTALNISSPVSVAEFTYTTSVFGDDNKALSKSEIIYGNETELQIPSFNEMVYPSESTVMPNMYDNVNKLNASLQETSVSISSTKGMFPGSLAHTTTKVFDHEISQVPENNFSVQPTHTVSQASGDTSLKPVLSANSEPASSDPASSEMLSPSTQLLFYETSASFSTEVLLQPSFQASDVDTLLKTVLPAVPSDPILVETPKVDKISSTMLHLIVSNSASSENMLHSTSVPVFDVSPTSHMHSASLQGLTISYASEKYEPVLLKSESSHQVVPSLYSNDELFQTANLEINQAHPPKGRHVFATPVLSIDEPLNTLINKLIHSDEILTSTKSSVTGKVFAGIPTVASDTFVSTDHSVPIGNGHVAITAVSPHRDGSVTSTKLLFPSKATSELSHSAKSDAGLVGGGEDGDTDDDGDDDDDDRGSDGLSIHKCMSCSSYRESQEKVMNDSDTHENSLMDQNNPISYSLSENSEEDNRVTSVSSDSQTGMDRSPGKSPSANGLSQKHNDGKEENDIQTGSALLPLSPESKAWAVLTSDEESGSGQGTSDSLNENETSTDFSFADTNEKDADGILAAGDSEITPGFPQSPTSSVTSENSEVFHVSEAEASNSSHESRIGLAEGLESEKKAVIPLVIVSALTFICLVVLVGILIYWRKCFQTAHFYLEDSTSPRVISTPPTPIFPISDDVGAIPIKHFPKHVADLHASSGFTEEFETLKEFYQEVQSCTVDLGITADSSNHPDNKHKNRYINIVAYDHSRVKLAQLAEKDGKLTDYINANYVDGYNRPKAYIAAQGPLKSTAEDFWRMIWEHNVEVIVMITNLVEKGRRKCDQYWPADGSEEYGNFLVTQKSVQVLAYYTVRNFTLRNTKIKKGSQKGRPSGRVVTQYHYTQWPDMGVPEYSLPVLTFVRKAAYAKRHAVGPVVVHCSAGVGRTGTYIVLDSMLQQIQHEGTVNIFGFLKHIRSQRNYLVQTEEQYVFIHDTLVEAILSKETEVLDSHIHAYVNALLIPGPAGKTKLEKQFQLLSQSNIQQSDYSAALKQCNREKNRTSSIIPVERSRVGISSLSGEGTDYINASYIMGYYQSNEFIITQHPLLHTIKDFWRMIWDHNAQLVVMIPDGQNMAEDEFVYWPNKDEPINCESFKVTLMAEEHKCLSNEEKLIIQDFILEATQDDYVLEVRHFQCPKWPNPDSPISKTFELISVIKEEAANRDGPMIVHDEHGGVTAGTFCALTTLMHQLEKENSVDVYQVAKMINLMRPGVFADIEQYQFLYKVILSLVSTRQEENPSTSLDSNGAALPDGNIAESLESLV

Key:
[1] = molecular target: T1, HA-tagged rat CASPR/p190 (pCM190HA) (rat) (UniProt P97846); assay: co-precipitation with βC-Fc from lysates of COS7 cells co-expressing contactin and tagged CASPR/p190
T1 sequence: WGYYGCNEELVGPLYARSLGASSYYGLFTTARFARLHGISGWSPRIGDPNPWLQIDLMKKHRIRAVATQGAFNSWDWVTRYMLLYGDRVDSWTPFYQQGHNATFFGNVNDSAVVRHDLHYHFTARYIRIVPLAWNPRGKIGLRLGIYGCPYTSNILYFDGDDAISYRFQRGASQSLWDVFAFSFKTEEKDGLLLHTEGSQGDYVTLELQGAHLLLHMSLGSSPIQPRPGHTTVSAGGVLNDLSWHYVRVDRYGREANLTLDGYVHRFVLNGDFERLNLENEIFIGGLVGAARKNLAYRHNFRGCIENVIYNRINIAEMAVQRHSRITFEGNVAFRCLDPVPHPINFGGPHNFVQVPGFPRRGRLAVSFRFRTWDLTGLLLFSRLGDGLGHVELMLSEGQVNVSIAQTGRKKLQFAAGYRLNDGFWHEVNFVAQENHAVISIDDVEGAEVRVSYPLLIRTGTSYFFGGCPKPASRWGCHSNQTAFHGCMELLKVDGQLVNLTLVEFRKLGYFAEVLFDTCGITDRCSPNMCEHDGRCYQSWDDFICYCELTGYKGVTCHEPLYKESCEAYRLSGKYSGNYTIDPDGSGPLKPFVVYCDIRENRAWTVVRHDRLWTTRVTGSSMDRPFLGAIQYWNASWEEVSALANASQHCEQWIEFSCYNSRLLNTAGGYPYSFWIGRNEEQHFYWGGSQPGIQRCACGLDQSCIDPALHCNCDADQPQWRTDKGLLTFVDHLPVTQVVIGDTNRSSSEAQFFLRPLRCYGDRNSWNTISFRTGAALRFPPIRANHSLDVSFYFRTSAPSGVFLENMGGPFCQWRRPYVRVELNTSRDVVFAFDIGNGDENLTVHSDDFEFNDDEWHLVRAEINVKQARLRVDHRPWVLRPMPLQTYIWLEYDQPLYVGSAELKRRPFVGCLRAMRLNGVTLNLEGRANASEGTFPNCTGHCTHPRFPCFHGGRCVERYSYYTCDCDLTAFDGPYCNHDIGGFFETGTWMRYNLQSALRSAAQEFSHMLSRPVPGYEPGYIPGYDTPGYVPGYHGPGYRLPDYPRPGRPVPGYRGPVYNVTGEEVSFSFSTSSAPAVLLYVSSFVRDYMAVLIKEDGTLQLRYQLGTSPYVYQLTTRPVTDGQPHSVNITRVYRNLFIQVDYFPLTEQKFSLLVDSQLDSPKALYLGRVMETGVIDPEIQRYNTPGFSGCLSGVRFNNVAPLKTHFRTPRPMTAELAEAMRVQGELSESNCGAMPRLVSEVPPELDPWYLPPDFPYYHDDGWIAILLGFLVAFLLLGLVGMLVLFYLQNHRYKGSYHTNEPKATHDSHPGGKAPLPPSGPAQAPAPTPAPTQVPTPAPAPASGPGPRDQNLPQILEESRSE

[2] = molecular target: βC/EK chimeric receptor (CAH domain of RPTPβ alone fused to the transmembrane and intracellular domains of the EGF receptor) (human) (UniProt P23471+P00533); assay: Fc-fusion binding to transfected COS7 cells

B1: rat contactin (clone F8; p140 of GH3 cells) (receptor, UniProt Q63198 21-1001, looked up)
chain: EFTWHRRYGHGVSEEDKGFGPIFEEQPINTIYPEESLEGKVSLNCRARASPFPVYKWRMNNGDVDLTNDRYSMVGGNLVINNPDKQKDAGIYYCLASNNYGMVRSTEATLSFGYLDPFPPEDRPEVKVKEGKGMVLLCDPPYHFPDDLSYRWLLNEFPVFITMDKRRFVSQTNGNLYIANVESSDRGNYSCFVSSPSITKSVFSKFIPLIPIPERTTKPYPADIVVQFKDIYTMMGQNVTLECFALGNPVPDIRWRKVLEPMPTTAEISTSGAVLKIFNIQLEDEGLYECEAENIRGKDKHQARIYVQAFPEWVEHINDTEVDIGSDLYWPCVATGKPIPTIRWLKNGYAYHKGELRLYDVTFENAGMYQCIAENAYGTIYANAELKILALAPTFEMNPMKKKILAAKGGRVIIECKPKAAPKPKFSWSKGTEWLVNSSRILIWEDGSLEINNITRNDGGIYTCFAENNRGKANSTGTLVITNPTRIILAPINADITVGENATMQCAASFDPSLDLTFVWSFNGYVIDFNKEITNIHYQRNFMLDANGELLIRNAQLKHAGRYTCTAQTIVDNSSASADLVVRGPPGPPGGLRIEDIRATSVALTWSRGSDNHSPISKYTIQTKTILSDDWKDAKTDPPIIEGNMESAKAVDLIPWMEYEFRVVATNTLGTGEPSIPSNRIKTDGAAPNVAPSDVGGGGGTNRELTITWAPLSREYHYGNNFGYIVAFKPFDGEEWKKVTVTNPDTGRYVHKDETMTPSTAFQVKVKAFNNKGDGPYSLIAVINSAQDAPSEAPTEVGVKVLSSSEISVHWKHVLEKIVESYQIRYWAGHDKEAAAHRVQVTSQEYSARLENLLPDTQYFIEVGACNSAGCGPSSDVIETFTRKAPPSQPPRIISSVRSGSRYIITWDHVVALSNESTVTGYKILYRPDGQHDGKLFSTHKHSIEVPIPRDGEYVVEVRAHSDGGDGVVSQVKISGVSTLS
modifications: GPI-anchored
In the case of B1, the binding [1] is reported as “binds”.

B2: human contactin-Fc fusion protein (amino acids 1-1020 of human contactin fused to the IgG region) (Fc fusion, UniProt Q12860 21-1018, looked up, not shown: a dimerising Fc or GST)
chain: EFTWYRRYGHGVSEEDKGFGPIFEEQPINTIYPEESLEGKVSLNCRARASPFPVYKWRMNNGDVDLTSDRYSMVGGNLVINNPDKQKDAGIYYCLASNNYGMVRSTEATLSFGYLDPFPPEERPEVRVKEGKGMVLLCDPPYHFPDDLSYRWLLNEFPVFITMDKRRFVSQTNGNLYIANVEASDKGNYSCFVSSPSITKSVFSKFIPLIPIPERTTKPYPADIVVQFKDVYALMGQNVTLECFALGNPVPDIRWRKVLEPMPSTAEISTSGAVLKIFNIQLEDEGIYECEAENIRGKDKHQARIYVQAFPEWVEHINDTEVDIGSDLYWPCVATGKPIPTIRWLKNGYAYHKGELRLYDVTFENAGMYQCIAENTYGAIYANAELKILALAPTFEMNPMKKKILAAKGGRVIIECKPKAAPKPKFSWSKGTEWLVNSSRILIWEDGSLEINNITRNDGGIYTCFAENNRGKANSTGTLVITDPTRIILAPINADITVGENATMQCAASFDPALDLTFVWSFNGYVIDFNKENIHYQRNFMLDSNGELLIRNAQLKHAGRYTCTAQTIVDNSSASADLVVRGPPGPPGGLRIEDIRATSVALTWSRGSDNHSPISKYTIQTKTILSDDWKDAKTDPPIIEGNMEAARAVDLIPWMEYEFRVVATNTLGRGEPSIPSNRIKTDGAAPNVAPSDVGGGGGRNRELTITWAPLSREYHYGNNFGYIVAFKPFDGEEWKKVTVTNPDTGRYVHKDETMSPSTAFQVKVKAFNNKGDGPYSLVAVINSAQDAPSEAPTEVGVKVLSSSEISVHWEHVLEKIVESYQIRYWAAHDKEEAANRVQVTSQEYSARLENLLPDTQYFIEVGACNSAGCGPPSDMIEAFTKKAPPSQPPRIISSVRSGSRYIITWDHVVALSNESTVTGYKVLYRPDGQHDGKLYSTHKHSIEVPIPRDGEYVVEVRAHSDGGDGVVSQVKISGAPTLSPSLLGLLLPAFGILVYLEF
For B2, the binding [2] was “binds”.
